# Results published in patent US12157713B2, “Conjugated oligoelectrolytes as antimicrobial agents” (Nanyang Technological University, priority 2018, dated 2024).
# Tested on: human erythrocytes
# Test: Haemolysis assay
# Format: cell-based
# Conditions: MIC against S. aureus 25923
# Method: 1 mL of mammalian blood, collected from a healthy donor, was mixed with 9 mL of PBS and centrifuged at 1,000 rpm for 5 min. Red blood cell pellet was collected and subsequently washed with PBS three times and diluted to a final concentration of 5% v/v. The various COEs were dissolved in PBS and two folds serial diluted in a 96-well microplate. 50 μL of red blood cell stock was mixed with 50 μL of COE solution in each well and incubated for 1 hr at 37° C. under shaking. The microplate was centrifuged at 1,000 rpm for 10 min. 80 μL aliquots of the supernatant were then transferred to a new 96-well microplate and diluted with another 80 μL of PBS. Haemolytic activity was calculated by measuring absorbance at 540 nm using a 96-well plate spectrophotometer. Triton X-100 (0.1% in PBS), which is able to lyse red blood cells, completely was used as positive control, while PBS was used as negative control. The haemolysis percentage was calculated using the following formula:
# [formula] where Op is the absorbance of the COE-treated sample, Ob is the absorbance of negative control and Ot is the absorbance of positive control. Results and Discussions
# The selectivity of COEs towards bacteria or mammalian cells can be quantified using the ratio between the concentrations leading to 50% lysis of human erythrocytes (HC50) and the MIC value.
compound,measurement,value
CN(C)CC[N+](C)(C)CCCCCCOc1ccc(/C=C/c2ccc(OCCCCCC[N+](C)(C)CCN(C)C)cc2)cc1 [COE-D62N],HC50/MIC (S. aureus) ratio,>32768
